In PubChem BioAssay AID2417 (National Center for Advancing Translational Sciences (NCATS), 2010):
The campaign covered roughly 140,000 compounds. About 4,300 (3.1%) were called active. Inconclusive results, whose numbers are uncertain, are shown with a selection of clear calls.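 How the source made its calls: active means readout at or below -70, meaning at least 70% loss of cells showing the perinucleolar compartment, a nuclear body marking cancer cells; inconclusive means readout between -30 and a set limit; inactive means the rest.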

assay: High Content Assay for Compounds that inhibit the Assembly of the Perinucleolar Compartment; settings: PC3M PTB-GFP, PNC prevalence imaging, 16 h; at 10 µM; active compounds read low;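 further: plate controls were DMSO wells for no effect and camptothecin positive control wells for full effect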
Outline: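 Compounds are pinned in duplicate onto adhered PC3M cells stably expressing GFP-tagged PTB and incubated 16 h at 37 C. Cells are then fixed, nuclei stained with Hoechst, and PNC-positive cells counted.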

Which activity change (PNC), negative = inhibition does the source give for `CCOC(=O)CSc1nc2c(c(=O)n(C)c(=O)n2C)n1Cc1ccccc1F` here?
The activity change (PNC), negative = inhibition was inconclusive: -33.5%.

For `CCOc1ccc(S(=O)(=O)N(C)c2ccc(OCC(=O)N3CCOCC3)cc2)cc1`, which activity change (PNC), negative = inhibition is on record?
The activity change (PNC), negative = inhibition was inactive: 9.69%.

For `CN(C)CCn1c(C(=O)O)cc2ccccc21`, which activity change (PNC), negative = inhibition is on record?
Its activity change (PNC), negative = inhibition is inconclusive: -38.3%.

With `Cc1ccc(Cn2c(SCCN3CCCCC3)nc3c2c(=O)[nH]c(=O)n3C)cc1` as the compound, how does the activity change (PNC), negative = inhibition read?
Its activity change (PNC), negative = inhibition is inconclusive: -44.4%.

For `Cc1ccc(C)n1NC(=O)c1cccs1`, which activity change (PNC), negative = inhibition is on record?
The activity change (PNC), negative = inhibition was active: -117%.

Which activity change (PNC), negative = inhibition does the source give for `Cc1cccc2cc3c(N)c(C(=O)Nc4ccc(N5CCOCC5)cc4)sc3nc12` here?
Its activity change (PNC), negative = inhibition is inactive: 49.9%.

Which activity change (PNC), negative = inhibition does the source give for `CSc1nc2ccc(NC(=O)c3cc4ccccc4o3)cc2s1` here?
The activity change (PNC), negative = inhibition was inconclusive: -36.7%.

With `Cc1ccc(C(=O)CC(=O)COc2ccc(Cl)cc2)cc1` as the compound, how does the activity change (PNC), negative = inhibition read?
Its activity change (PNC), negative = inhibition is inactive: 12%.

For `COC(=O)c1ccc(NC(=O)CSc2nnc(COc3ccc4c(c3)CCCC4)o2)cc1`, which activity change (PNC), negative = inhibition is on record?
Its activity change (PNC), negative = inhibition is inconclusive: -41.3%.

With `O=C1CN(C(=O)COc2ccccc2F)c2ccccc2N1` as the compound, how does the activity change (PNC), negative = inhibition read?
The activity change (PNC), negative = inhibition was inactive: 29.7%.

Which activity change (PNC), negative = inhibition does the source give for `C=CCNC(=S)N/N=C(\C)c1cc(OC)c(OC)c(OC)c1` here?
The activity change (PNC), negative = inhibition was inconclusive: -38.7%.

For `Cc1c(NC(=O)OCCSc2nc(N(C)C)nc(N(C)C)n2)sc(=S)n1C`, which activity change (PNC), negative = inhibition is on record?
The activity change (PNC), negative = inhibition was inactive: -21.1%.

Which activity change (PNC), negative = inhibition does the source give for `Cn1nccc1C(=O)Nc1ccc(OC(=O)c2ccnn2C)cc1` here?
Its activity change (PNC), negative = inhibition is inconclusive: -42.8%.

For `CN(C)c1ccc(C(=O)/C=C/c2ccc(Br)cc2)cc1`, which activity change (PNC), negative = inhibition is on record?
The activity change (PNC), negative = inhibition was inconclusive: -31.2%.

For `CC(C)(C)C(=O)NC(=S)NNC(=O)c1sc2ccccc2c1Cl`, which activity change (PNC), negative = inhibition is on record?
The activity change (PNC), negative = inhibition was active: -112%.

For `CC(C)OP(=O)(OC(C)C)C(O)c1ccc2c(c1)OCO2` (stereo not given), which activity change (PNC), negative = inhibition is on record?
Its activity change (PNC), negative = inhibition is inconclusive: -57.5%.

Which activity change (PNC), negative = inhibition does the source give for `CCN(CC)S(=O)(=O)c1cccc(-c2nnc(SC(C)C(=O)NCCC3=CCCCC3)o2)c1` (stereo not given) here?
The activity change (PNC), negative = inhibition was inconclusive: -34.4%.

With `Cc1ccc(C)c(C(=O)Cn2ncc(Cl)c(Cl)c2=O)c1` as the compound, how does the activity change (PNC), negative = inhibition read?
The activity change (PNC), negative = inhibition was inactive: -6.02%.

For `CCCCn1c(SCC(=O)NCc2ccco2)nc2ccc(N3CCOCC3)cc2c1=O`, which activity change (PNC), negative = inhibition is on record?
Its activity change (PNC), negative = inhibition is inconclusive: -33.6%.

For `O=C(COC(=O)c1ccc(S(=O)(=O)Nc2ccccc2)cc1)NCCN1C(=O)CSC1=O`, which activity change (PNC), negative = inhibition is on record?
The activity change (PNC), negative = inhibition was inconclusive: -41.1%.

For `CC(=O)c1c(C)[nH]c(C(=O)OCCCCN2C(=O)c3ccccc3C2=O)c1C`, which activity change (PNC), negative = inhibition is on record?
The activity change (PNC), negative = inhibition was inactive: -17.3%.

Which activity change (PNC), negative = inhibition does the source give for `O=S(=O)(N/N=C/c1cccc(OC2CSC2)c1)c1ccccc1` here?
The activity change (PNC), negative = inhibition was active: -112%.

Which activity change (PNC), negative = inhibition does the source give for `C/C(=C(\C#N)C(=O)NCc1ccccc1)N(C)C` here?
Its activity change (PNC), negative = inhibition is inconclusive: -32%.

Which activity change (PNC), negative = inhibition does the source give for `Cc1c(Br)c([N+](=O)[O-])nn1CC(=O)Nc1ccc(Cc2ccncc2)cc1` here?
The activity change (PNC), negative = inhibition was active: -93.1%.

Which activity change (PNC), negative = inhibition does the source give for `O=C(Nc1cc(N2CCOCC2)ncn1)Nc1cccc2ccccc12` here?
The activity change (PNC), negative = inhibition was inconclusive: -52.3%.
